Results on 1 molecule are retold here after patent US20170037136A1.

By UniProt entry, the sequences of proteins in these tests, tags left out. Where a name states a change or a piece, a line headed by the entry shows the natural chain unless it says otherwise.
UniProt P29965: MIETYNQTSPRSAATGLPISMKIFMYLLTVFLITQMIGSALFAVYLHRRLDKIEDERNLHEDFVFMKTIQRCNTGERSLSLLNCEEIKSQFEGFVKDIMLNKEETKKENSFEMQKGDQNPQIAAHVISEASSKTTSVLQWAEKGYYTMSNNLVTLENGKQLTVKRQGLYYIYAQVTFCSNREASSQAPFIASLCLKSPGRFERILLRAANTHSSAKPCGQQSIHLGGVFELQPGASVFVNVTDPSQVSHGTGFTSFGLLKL

No constants are given. Whether binding was seen depends on the method and setting. Some entries that bind do so weakly or less than the wild type.

For assay [1], the target named is shCD154-his (soluble human CD154, His6 fusion) (human) (UniProt P29965). Put plainly: SPR (ProteOn XPR36) as in Example 1.
Assay [2] has as its target soluble human CD154 (shCD154) (human) (UniProt P29965). Put plainly: SE-HPLC of antibody with AF488-labelled shCD154 at 1:1 and 10:1 molar ratio.

B1: C4LB237 (antibody, V domains shown)
VH: QVQLVQSGAEVKKPGSSVKVSCKASGGTFSSYGISWVRQAPGQGLEWMGWISPIFGNTNYAQKFQGRVTITADESTSTAYMELSSLRSEDTAVYYCARSRYYGDLDYWGQGTLVTVSS
VL: DIQMTQSPSSLSASVGDRVTITCRASQSISSYLNWYQQKPGKAPKLLIYYANSLQSGVPSRFSGSGSGTDFTLTISSLQPEDFATYYCQQSDSIPWTFGQGTKVEIK
Regarding B1, the binding result in assay [1] and in assay [2] was “binds” each time.
